These are yes or no findings as the source states them, for the method shown. Some binding calls cover weakened binding; strength is not graded here.

By UniProt entry, the sequences of proteins in these tests, tags left out. Residues count along the entry.
UniProt Q01973, residues 30-403: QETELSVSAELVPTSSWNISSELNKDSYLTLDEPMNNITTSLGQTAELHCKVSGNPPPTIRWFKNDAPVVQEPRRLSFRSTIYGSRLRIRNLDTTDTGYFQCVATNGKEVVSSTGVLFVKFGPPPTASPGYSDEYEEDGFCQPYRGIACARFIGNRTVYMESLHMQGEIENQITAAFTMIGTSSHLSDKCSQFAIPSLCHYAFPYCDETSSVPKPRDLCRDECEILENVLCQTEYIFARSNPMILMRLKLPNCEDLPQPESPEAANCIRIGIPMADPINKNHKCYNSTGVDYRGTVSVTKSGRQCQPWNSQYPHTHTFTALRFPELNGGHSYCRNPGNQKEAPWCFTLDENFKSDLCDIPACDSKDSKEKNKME

Six molecules from patent US20240058465A1 can be followed below.

First the molecules themselves.
B1: 1987-C05 HC co-expressed with hUCHT1-LC3 light chain (antibody, V domains shown)
VH: EVQLVESGGGLVQPGGSLRLSCAASGFNISDYDIHWVRQAPGKGLEWVGGIDPDDGSTDYADSVKGRFTISADTSKNTAYLQMNSLRAEDTAVYYCARDYGVFDYWGQGTLVTVSS
VL: DIQMTQSPSTLSASVGDRVTITCRASQDIRNYLNWYQQKPGKAPKLLIYYTSRLHSGVPSRFSGSGSGTEYTLTISSLQPDDFATYYCQQGNTLPWTFGGGTKVEIK
B2: 1944-A07 HC co-expressed with hUCHT1-LC3 light chain (antibody, V domains shown)
VH: EVQLVESGGGLVQPGGSLRLSCAASGFNITGYYIHWVRQAPGKGLEWVGYISPNSGSTYYADSVKGRFTISADTSKNTAYLQMNSLRAEDTAVYYCARDSRRYVRPFDYWGQGTLVTVSS
VL: B1 VL
B3: 1987-C05 HC co-expressed with hSP34-LC3 light chain (antibody, V domains shown)
VH: B1 VH
VL: QTVVTQEPSLTVSPGGTVTLTCGSSTGAVTSGYYPNWFQQKPGQAPRGLIGGTKFLAPGTPARFSGSLLGGKAALTLSGVQPEDEAEYYCALWYSNRWVFGGGTQLTVTG
B4: 1944-A07 HC co-expressed with hOKT3-LC1 light chain (antibody, V domains shown)
VH: B2 VH
VL: DIQMTQSPSSLSASVGDRVTITCSASSSVSYMNWYQQKPGKAPKRLIYDTSKLASGVPSRFSGSGSGTEYTLTISSLQPEDFATYYCQQWSSNPFTFGQGTKLEIK
B5: 1944-A07 HC co-expressed with hSP34-LC3 light chain (antibody, IgG1, V domains shown)
VH: B2 VH
VL: B3 VL
B6: 1944-A07 with aCD3 SP34 LC (antibody, V domains shown)
VH: B2 VH
VL: QAVVTQESALTTSPGETVTLTCRSSTGAVTTSNYANWVQEKPDHLFTGLIGGTNKRAPGVPARFSGSLIGDKAALTITGAQTEDEAIYFCALWYSNLWVFGGGTKLTVL

One experiment addresses ROR1 (recombinant protein coated on the ELISA plate, Example 11) (UniProt Q01973). Description: ELISA, ROR1 coated on the plate. A general note: In an ELISA, binding on a coated surface is turned into a signal by an enzyme label.
Turning to B1, the binding result was “binds”.
The same measure, in the same setting: the value for B2 was “binds”.
Regarding B3, the binding entry was “binds”.
The same measure, in the same setting: for B4 the value was “binds”; for B5, “binds”.

Another experiment has the same target. The experiment can be described thus: ELISA, ROR1 coated on the plate, HRP anti-human Fc detection.
With B1, the binding entry was “binds”.
As to B2, the binding entry is given as “binds”.
Take B3: the binding result is recorded as “binds”.
With B4, the binding entry is on record as “binds”.
As for B5, the binding result was “binds”.

Another experiment has as its target human ROR1 Frizzled domain (Fz, residues 165-305) with C-terminal HIS6 tag (human) (UniProt Q01973). Description: ELISA on plate-coated ROR1 domains, column 'Domain binding by ELISA'.
For the molecule B6, the binding result is given as “binds”.

The next experiment deals with ROR1 (recombinant protein coated on the ELISA plate, Example 11) (UniProt Q01973). Description: ELISA: ROR1 coated on the plate, antibody titrated 3-fold from 5 ug/mL, HRP anti-human Fc, chemiluminescence (ELISA RLU).
As to B1, the binding result is listed as “binds”.
With B2, the binding result is reported as “binds”.
As for B3, the binding entry is “binds”.
Regarding B4, the binding result is “binds”.
As for B5, the binding entry was “binds”.
